Experimental data reported in PMC10740258.
Results are given in words; binding and its absence hold for the method and conditions named. Binding seen in cells or lysates may run through a third protein. Some entries that bind do so weakly or less than the wild type.

Chains of the proteins cited; added tags and fusions are not shown.
UniProt Q6R327: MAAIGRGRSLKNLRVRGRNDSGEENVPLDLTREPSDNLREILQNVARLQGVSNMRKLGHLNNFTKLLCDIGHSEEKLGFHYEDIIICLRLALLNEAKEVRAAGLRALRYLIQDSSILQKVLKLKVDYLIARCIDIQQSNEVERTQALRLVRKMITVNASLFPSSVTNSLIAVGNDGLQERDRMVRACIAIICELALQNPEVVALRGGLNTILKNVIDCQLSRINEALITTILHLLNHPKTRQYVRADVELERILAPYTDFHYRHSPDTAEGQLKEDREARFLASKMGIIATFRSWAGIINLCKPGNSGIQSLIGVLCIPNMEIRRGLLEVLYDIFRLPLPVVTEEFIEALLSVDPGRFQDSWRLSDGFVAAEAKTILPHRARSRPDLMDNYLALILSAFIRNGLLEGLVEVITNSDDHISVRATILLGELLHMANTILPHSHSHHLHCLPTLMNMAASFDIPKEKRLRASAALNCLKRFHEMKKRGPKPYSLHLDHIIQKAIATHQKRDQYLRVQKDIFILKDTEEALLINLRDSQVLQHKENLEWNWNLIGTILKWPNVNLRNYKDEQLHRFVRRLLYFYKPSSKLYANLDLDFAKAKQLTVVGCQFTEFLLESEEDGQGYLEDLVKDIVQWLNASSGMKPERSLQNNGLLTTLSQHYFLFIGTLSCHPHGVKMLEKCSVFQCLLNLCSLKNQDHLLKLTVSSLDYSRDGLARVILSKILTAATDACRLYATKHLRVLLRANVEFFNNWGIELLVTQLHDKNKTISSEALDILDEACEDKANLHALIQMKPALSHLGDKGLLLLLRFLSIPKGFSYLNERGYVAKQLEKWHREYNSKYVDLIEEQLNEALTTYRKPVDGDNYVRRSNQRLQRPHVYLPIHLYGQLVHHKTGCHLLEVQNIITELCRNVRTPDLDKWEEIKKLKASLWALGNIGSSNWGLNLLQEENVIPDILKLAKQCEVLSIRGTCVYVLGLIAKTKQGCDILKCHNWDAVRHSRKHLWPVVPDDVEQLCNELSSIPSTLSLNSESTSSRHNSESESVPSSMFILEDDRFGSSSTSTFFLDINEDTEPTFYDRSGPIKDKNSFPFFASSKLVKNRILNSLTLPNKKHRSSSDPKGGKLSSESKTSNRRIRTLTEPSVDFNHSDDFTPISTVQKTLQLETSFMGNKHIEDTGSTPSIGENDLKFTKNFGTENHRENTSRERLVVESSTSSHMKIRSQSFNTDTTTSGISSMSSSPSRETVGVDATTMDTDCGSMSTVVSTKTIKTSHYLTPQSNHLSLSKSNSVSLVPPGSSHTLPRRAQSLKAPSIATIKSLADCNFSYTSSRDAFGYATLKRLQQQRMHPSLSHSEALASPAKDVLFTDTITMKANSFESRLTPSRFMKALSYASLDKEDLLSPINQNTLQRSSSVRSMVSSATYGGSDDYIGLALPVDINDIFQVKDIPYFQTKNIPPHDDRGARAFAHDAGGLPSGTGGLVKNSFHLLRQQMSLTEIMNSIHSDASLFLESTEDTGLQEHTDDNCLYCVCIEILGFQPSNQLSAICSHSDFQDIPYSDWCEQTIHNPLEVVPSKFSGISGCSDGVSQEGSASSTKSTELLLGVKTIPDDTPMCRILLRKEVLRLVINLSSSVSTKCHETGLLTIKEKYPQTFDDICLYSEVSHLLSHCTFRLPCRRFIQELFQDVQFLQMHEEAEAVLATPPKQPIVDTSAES

Biological target: Rictor (endogenous) (human (endogenous in MDA-MB-231 and U87)) (UniProt Q6R327)
Assay: co-IP; IP of endogenous Rictor from MDA-MB-231 cells serum-starved overnight and stimulated with EGF for 10 min; immunoblot

binding: binds
B1: NUAK1 (endogenous) (protein, UniProt O60285 1-661)
chain: MEGAAAPVAGDRPDLGLGAPGSPREAVAGATAALEPRKPHGVKRHHHKHNLKHRYELQETLGKGTYGKVKRATERFSGRVVAIKSIRKDKIKDEQDMVHIRREIEIMSSLNHPHIISIYEVFENKDKIVIIMEYASKGELYDYISERRRLSERETRHFFRQIVSAVHYCHKNGVVHRDLKLENILLDDNCNIKIADFGLSNLYQKDKFLQTFCGSPLYASPEIVNGRPYRGPEVDSWALGVLLYTLVYGTMPFDGFDHKNLIRQISSGEYREPTQPSDARGLIRWMLMVNPDRRATIEDIANHWWVNWGYKSSVCDCDALHDSESPLLARIIDWHHRSTGLQADTEAKMKGLAKPTTSEVMLERQRSLKKSKKENDFAQSGQDAVPESPSKLSSKRPKGILKKRSNSEHRSHSTGFIEGVVGPALPSTFKMEQDLCRTGVLLPSSPEAEVPGKLSPKQSATMPKKGILKKTQQRESGYYSSPERSESSELLDSNDVMGSSIPSPSPPDPARVTSHSLSCRRKGILKHSSKYSAGTMDPALVSPEMPTLESLSEPGVPAEGLSRSYSRPSSVISDDSVLSSDSFDLLDLQENRPARQRIRSCVSAENFLQIQDFEGLQNRPRPQYLKRYRNRLADSSFSLLTDMDDVTQVYKQALEICSKLN
